Reference: PubChem BioAssay AID208 (DTP/NCI, 2004)
The list is a part of this screen's results and no random one: it is rich in T/C values a quarter to a half above the control, in often repeated tests (any T/C) and in doses without a T/C. Further doses and runs are listed elsewhere. T/C gives the treated animals as a percentage of the vehicle group. Schedule codes are those of the source, taken here to give the interval after Q, in days (D) or hours (H), and the number of doses after X. Some entries give survivors of the animals treated and no T/C: the source files T/C as zero there, which appears to mark a toxic dose or a test without result, not a measured value. Survivors were counted at the toxicity check, usually on the fifth day, unless a day is given; later deaths do not show.

System: HT29 intrarenal xenograft, nude mice, tumor weight change
Assay: NCI In Vivo Anticancer Drug Screen. Data for tumor model HT29;CX-1 Human Adenocarcinoma (MER+) (intrarenal inoculation) in NU/NU BALB/C (nude) mice
Conditions: T/C endpoint: mean tumor weight change, higher T/C = larger tumour
Protocol: The antitumor activity of compounds was measured in mice bearing transplantable tumors. Survival or tumor size were measured and the results are expressed as the measurement made in the treated group (T) divided by the measurement made in the vehicle treated control group (C). The tumor model used in this assay is HT29;CX-1 Human Adenocarcinoma (MER+) (intrarenal inoculation) in NU/NU BALB/C (nude) mice

With `Oc1c(Cl)cc(Cl)cc1C=NCCSc1ccc(Cl)cc1` the survivor count (dose: 1200.0 mg/kg/injection, schedule: Q04DX004 (ip), vehicle: Klucel (hydroxypropylcellulose) (HPC)) was 0 of 6 on day 15.
In the case of `COc1cccc2c1C(=O)c1c(O)c3c(c(O)c1C2=O)C[C@@](O)(C(=O)CO)C[C@@H]3OC1CC(N2CCOCC2C#N)C(O)C(C)O1` (stereo not given in full), the survivor count (dose: 120.0 micrograms/kg/injection, schedule: Q04DX004 (ip), vehicle: saline) is reported as 0 of 6 on day 15 and the survivor count (dose: 240.0 micrograms/kg/injection, schedule: Q04DX004 (ip), vehicle: saline) is reported as 0 of 6 on day 15.
For `CSc1ncnc2c1ncn2C1OC(CO)C(O)C1O` (stereo not given), the survivor count (dose: 300.0 mg/kg/injection, schedule: Q04DX004 (sc), vehicle: saline + alcohol) was 0 of 6 on day 15.
With `Nc1nc(-c2ccccc2)c(Br)c(=O)[nH]1` the T/C (dose: 1200.0 mg/kg/injection, schedule: Q04DX004 (sc), vehicle: saline with Tween-80, evaluated on day 15) was 129 % of control.
